# Measured values taken from PMC8783446.
# Results are given in words; binding and its absence hold for the method and conditions named. Binding seen in cells or lysates may run through a third protein. Some binding calls cover weakened binding; strength is not graded here. Where a sequence is shown, tags or fusion partners need not be part of it.
# T1: HA-CFP-tagged human NKCC1 (pcDNA3.1-HA-CFP-hNKCC1 WT (NT15-H)) (human) (UniProt P55011)
# T1 sequence: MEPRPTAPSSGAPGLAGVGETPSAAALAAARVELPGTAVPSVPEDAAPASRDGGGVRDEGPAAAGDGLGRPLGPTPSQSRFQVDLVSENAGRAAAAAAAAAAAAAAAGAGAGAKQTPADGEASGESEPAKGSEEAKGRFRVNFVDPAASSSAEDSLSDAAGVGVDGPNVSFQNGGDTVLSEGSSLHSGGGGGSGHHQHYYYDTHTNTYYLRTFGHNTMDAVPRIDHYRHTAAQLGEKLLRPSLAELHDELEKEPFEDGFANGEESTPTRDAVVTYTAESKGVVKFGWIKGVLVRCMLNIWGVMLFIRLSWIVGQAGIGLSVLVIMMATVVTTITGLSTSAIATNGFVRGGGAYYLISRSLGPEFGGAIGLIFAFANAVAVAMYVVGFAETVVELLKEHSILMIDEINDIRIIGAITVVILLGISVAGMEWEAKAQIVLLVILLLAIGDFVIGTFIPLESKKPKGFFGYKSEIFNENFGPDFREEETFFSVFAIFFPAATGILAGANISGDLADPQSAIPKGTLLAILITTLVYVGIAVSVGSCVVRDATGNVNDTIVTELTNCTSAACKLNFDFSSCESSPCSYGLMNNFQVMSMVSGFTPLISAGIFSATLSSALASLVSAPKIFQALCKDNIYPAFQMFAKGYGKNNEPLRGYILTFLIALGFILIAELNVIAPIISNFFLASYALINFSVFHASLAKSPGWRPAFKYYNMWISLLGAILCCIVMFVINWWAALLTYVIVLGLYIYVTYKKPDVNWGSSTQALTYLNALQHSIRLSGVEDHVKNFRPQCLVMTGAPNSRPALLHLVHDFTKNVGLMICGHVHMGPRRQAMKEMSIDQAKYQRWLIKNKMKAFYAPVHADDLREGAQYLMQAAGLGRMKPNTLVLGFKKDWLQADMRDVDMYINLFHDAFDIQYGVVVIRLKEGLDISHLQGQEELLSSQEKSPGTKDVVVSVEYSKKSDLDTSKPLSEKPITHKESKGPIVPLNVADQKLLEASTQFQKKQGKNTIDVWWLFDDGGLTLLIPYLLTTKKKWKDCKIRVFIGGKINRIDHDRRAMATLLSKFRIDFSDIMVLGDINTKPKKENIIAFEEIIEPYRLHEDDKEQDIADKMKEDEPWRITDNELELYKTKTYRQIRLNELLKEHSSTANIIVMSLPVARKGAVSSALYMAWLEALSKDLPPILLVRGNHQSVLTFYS
# B1: Myc-DDK (Flag)-tagged murine γ-sarcoglycan (protein, UniProt P82348 1-291)
# chain: MVREQYTTVTEGTHIERPENQHIYKIGIYGWRKRCLYLFVLLLLAILVVNLALTIWILKVMWFSPIGMGHLHVTADGLRLEGESEFLFPLYAKEIRSRVDSSLLLQSTQNVTVSARNSEGEVTGRVKVGAQMVEVQSQHFQINSEDGKPLFSAEEQDVVVGTGRLRVTGPEGALFEHSVETPLVRADPFQDLRLESPTRSLSMDAPRGVHVKANAGKLEALSQMDIILQSSEGVLVLDAETVGLTKLKQGTQGPAGSSNGFYEICACPDGKLYLSMAGEVTTCEEHSHVCL
# What was measured:
# [1] = biological target: T1, HA-CFP-tagged human NKCC1 (pcDNA3.1-HA-CFP-hNKCC1 WT (NT15-H)) (human); assay: condition: only freeze-thaw of the cell lysates or stringent washes of the IP pellets; co-IP; RH30 cells co-transfected with Flag-tagged Sgcg, Sgcb, Sgcd and an HA-CFP construct; modified RIPA1 (no SDS) extract; anti-HA on Protein A Dynabeads, 1 h at 4 °C; brief, low-stringency washes; blot for Sgcg-Flag
# [2] = biological target: T1, HA-CFP-tagged human NKCC1 (pcDNA3.1-HA-CFP-hNKCC1 WT (NT15-H)) (human); assay: co-IP; RH30 cells co-transfected with Flag-tagged Sgcg, Sgcb, Sgcd and an HA-CFP construct; modified RIPA1 (no SDS) extract; anti-HA on Protein A Dynabeads, 1 h at 4 °C; brief, low-stringency washes; blot for Sgcg-Flag
# [3] = biological target: T1, HA-CFP-tagged human NKCC1 (pcDNA3.1-HA-CFP-hNKCC1 WT (NT15-H)) (human); assay: proximity ligation; Duolink In Situ Orange, mouse anti-HA and rabbit anti-Sgcg; co-transfected RH30 cells pre-extracted with 0.1% Triton X-100 in CSK buffer for 4 min on ice before fixation
binder,measurement,setting,value
B1,binding,[1],no binding
same,binding,[2],binds weakly
same,binding,[3],binds
